{"source": "PubChem BioAssay AID1259308 | NCATS, 2017", "aim": "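Knock-downs that increase output of a recombinant reporter protein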 (primary screen)", "cells": "human HEK293 embryonic kidney cells stably expressing firefly luciferase (HEK-CMV-Luc2-Hygro)", "reagents": "single siRNA against human genes, 0.8 pmol siRNA per well", "duration": "72 h", "read-out": "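Luciferase light (ONE-Glo) measured on one replicate plate set and viability (CellTiter-Glo) on the other, scaled to a negative control siRNA, with robust z-scores and luciferase per cell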", "direction": "total luciferase, z-score: higher = more reporter protein produced", "rule for the call": "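An siRNA counts as active if its total luciferase robust z-score exceeds 3; genes with two or more such siRNAs out of three were retested with fresh siRNAs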", "meaning of the calls": "active = raised luciferase; inactive = no rise", "note": "The deposit covers about 59,000 reagents; below is a random part of them. About 1,510 of all reagents (2.6%) count as active. 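Calls use total luciferase alone and ignore viability, so some active siRNAs may act by altering cell number.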 Entries without a mark were called inactive. Not all columns of the deposit are shown."}
{"gene symbol": "OR5B12 (olfactory receptor family 5 subfamily B member 12)", "PubChem SID": "SID160766434", "total luciferase, z-score": -1.74}
{"gene symbol": "OR5B12 (olfactory receptor family 5 subfamily B member 12)", "PubChem SID": "SID160766435", "total luciferase, z-score": 1.7}
{"gene symbol": "OR5B12 (olfactory receptor family 5 subfamily B member 12)", "PubChem SID": "SID160766436", "total luciferase, z-score": 0.295}
{"gene symbol": "LGR6 (leucine rich repeat containing G protein-coupled receptor 6)", "PubChem SID": "SID160747029", "total luciferase, z-score": -1.73}
{"gene symbol": "LGR6 (leucine rich repeat containing G protein-coupled receptor 6)", "PubChem SID": "SID160747030", "total luciferase, z-score": "4.25 (active)"}
{"gene symbol": "LGR6 (leucine rich repeat containing G protein-coupled receptor 6)", "PubChem SID": "SID160747031", "total luciferase, z-score": -0.426}
{"gene symbol": "OSMR (oncostatin M receptor)", "PubChem SID": "SID160721658", "total luciferase, z-score": 1.2}
{"gene symbol": "OSMR (oncostatin M receptor)", "PubChem SID": "SID160721659", "total luciferase, z-score": -0.338}
{"gene symbol": "OSMR (oncostatin M receptor)", "PubChem SID": "SID160721660", "total luciferase, z-score": -0.755}
{"gene symbol": "MOS (MOS proto-oncogene, serine/threonine kinase)", "PubChem SID": "SID160777405", "total luciferase, z-score": -0.241}
{"gene symbol": "MOS (MOS proto-oncogene, serine/threonine kinase)", "PubChem SID": "SID160777407", "total luciferase, z-score": 0.634}
{"gene symbol": "MOS (MOS proto-oncogene, serine/threonine kinase)", "PubChem SID": "SID160777408", "total luciferase, z-score": -0.829}
{"gene symbol": "ADAM15 (ADAM metallopeptidase domain 15)", "PubChem SID": "SID160720742", "total luciferase, z-score": -0.589}
{"gene symbol": "ADAM15 (ADAM metallopeptidase domain 15)", "PubChem SID": "SID160720743", "total luciferase, z-score": -1.3}
{"gene symbol": "ADAM15 (ADAM metallopeptidase domain 15)", "PubChem SID": "SID160720744", "total luciferase, z-score": -2.1}
{"gene symbol": "ZNF776 (zinc finger protein 776)", "PubChem SID": "SID160763247", "total luciferase, z-score": -0.141}
{"gene symbol": "ZNF776 (zinc finger protein 776)", "PubChem SID": "SID160763248", "total luciferase, z-score": 2.94}
{"gene symbol": "ZNF776 (zinc finger protein 776)", "PubChem SID": "SID160763249", "total luciferase, z-score": 1.12}
{"gene symbol": "TOMM22P5 (TOMM22 pseudogene 5)", "PubChem SID": "SID160725253", "total luciferase, z-score": 0.974}
{"gene symbol": "TOMM22P5 (TOMM22 pseudogene 5)", "PubChem SID": "SID160766328", "total luciferase, z-score": -0.338}
{"gene symbol": "TOMM22P5 (TOMM22 pseudogene 5)", "PubChem SID": "SID160766329", "total luciferase, z-score": 0.414}
{"gene symbol": "PBXIP1 (PBX homeobox interacting protein 1)", "PubChem SID": "SID160745879", "total luciferase, z-score": -0.725}
{"gene symbol": "PBXIP1 (PBX homeobox interacting protein 1)", "PubChem SID": "SID160745880", "total luciferase, z-score": 1.76}
{"gene symbol": "PBXIP1 (PBX homeobox interacting protein 1)", "PubChem SID": "SID160745881", "total luciferase, z-score": "3.9 (active)"}
{"gene symbol": "NANOS2 (nanos C2HC-type zinc finger 2)", "PubChem SID": "SID160764211", "total luciferase, z-score": 0.666}
{"gene symbol": "NANOS2 (nanos C2HC-type zinc finger 2)", "PubChem SID": "SID160764212", "total luciferase, z-score": 0.545}
{"gene symbol": "NANOS2 (nanos C2HC-type zinc finger 2)", "PubChem SID": "SID160764213", "total luciferase, z-score": 1.03}
{"gene symbol": "ADCY1 (adenylate cyclase 1)", "PubChem SID": "SID160713955", "total luciferase, z-score": -0.783}
{"gene symbol": "ADCY1 (adenylate cyclase 1)", "PubChem SID": "SID160713966", "total luciferase, z-score": -0.903}
{"gene symbol": "ADCY1 (adenylate cyclase 1)", "PubChem SID": "SID160713976", "total luciferase, z-score": 1.35}
{"gene symbol": "OR4C11 (olfactory receptor family 4 subfamily C member 11)", "PubChem SID": "SID160761246", "total luciferase, z-score": -0.243}
{"gene symbol": "OR4C11 (olfactory receptor family 4 subfamily C member 11)", "PubChem SID": "SID160761247", "total luciferase, z-score": -1.1}
{"gene symbol": "OR4C11 (olfactory receptor family 4 subfamily C member 11)", "PubChem SID": "SID160761248", "total luciferase, z-score": -1.79}

Reagents listed above with an active call, once more:
{"gene symbol": "LGR6 (leucine rich repeat containing G protein-coupled receptor 6)", "PubChem SID": "SID160747030", "total luciferase, z-score": "4.25 (active)"}
{"gene symbol": "PBXIP1 (PBX homeobox interacting protein 1)", "PubChem SID": "SID160745881", "total luciferase, z-score": "3.9 (active)"}
